Drug screen on melanoma cell lines: apoptosis marker

Values as published with doi:10.1371/journal.pone.0140310, rounded.

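Human melanoma cell lines in 1,536-well plates were treated with a pair of drugs for 72 h, then fixed, stained and imaged. The read-out is the fraction of cleaved-PARP-positive nuclei, in % of that fraction in the DMSO control; 200 means twice the control level of this apoptosis marker. Every drug was used at one fixed concentration, the higher of two screened. These are primary screening values without error estimates. Basal and induced levels differ widely between cell lines.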
This is part of the screen, not chosen by result.
An entry leaves out what has no value listed here.
A dash means that no value is listed here.

Every entry is a combination with RKI-983 at 2000 nM: C[C@@H](N)c1ccc(C(=O)Nc2ccnc3[nH]ccc23)cc1

Drugs:
PD173074: CCN(CC)CCCCNc1ncc2cc(-c3cc(OC)cc(OC)c3)c(NC(=O)NC(C)(C)C)nc2n1 at 500 nM
NVP-BEZ235: Cn1c(=O)n(-c2ccc(C(C)(C)C#N)cc2)c2c3cc(-c4cnc5ccccc5c4)ccc3ncc21 at 20 nM
sorafenib: CNC(=O)c1cc(Oc2ccc(NC(=O)Nc3ccc(Cl)c(C(F)(F)F)c3)cc2)ccn1 at 2000 nM
cediranib: COc1cc2c(Oc3ccc4[nH]c(C)cc4c3F)ncnc2cc1OCCCN1CCCC1 at 2000 nM
AZD7762: NC(=O)Nc1cc(-c2cccc(F)c2)sc1C(=O)N[C@H]1CCCNC1 at 100 nM
GW9662: O=C(Nc1ccccc1)c1cc([N+](=O)[O-])ccc1Cl at 10000 nM
FK866: O=C(/C=C/c1cccnc1)NCCCCC1CCN(C(=O)c2ccccc2)CC1 at 50 nM
vismodegib: CS(=O)(=O)c1ccc(C(=O)Nc2ccc(Cl)c(-c3ccccn3)c2)c(Cl)c1 at 5000 nM
vincristine: CC[C@]1(O)C[C@H]2CN(CCc3c([nH]c4ccccc34)[C@@](C(=O)OC)(c3cc4c(cc3OC)N(C=O)[C@H]3[C@@](O)(C(=O)OC)[C@H](OC(C)=O)[C@]5(CC)C=CCN6CC[C@]43[C@@H]65)C2)C1 at 0.5 nM
LFM-A13: C/C(O)=C(\C#N)C(=O)Nc1cc(Br)ccc1Br at 10000 nM
sunitinib: CCN(CC)CCNC(=O)c1c(C)[nH]c(/C=C2\C(=O)Nc3ccc(F)cc32)c1C at 2000 nM
lapatinib: CS(=O)(=O)CCNCc1ccc(-c2ccc3ncnc(Nc4ccc(OCc5cccc(F)c5)c(Cl)c4)c3c2)o1 at 4000 nM
vatalanib: Clc1ccc(Nc2nnc(Cc3ccncc3)c3ccccc23)cc1 at 10000 nM
pazopanib: Cc1ccc(Nc2nccc(N(C)c3ccc4c(C)n(C)nc4c3)n2)cc1S(N)(=O)=O at 2000 nM
bortezomib: CC(C)C[C@H](NC(=O)[C@H](Cc1ccccc1)NC(=O)c1cnccn1)B(O)O at 5 nM
enzastaurin: Cn1cc(C2=C(c3cn(C4CCN(Cc5ccccn5)CC4)c4ccccc34)C(=O)NC2=O)c2ccccc21 at 4000 nM
fingolimod: CCCCCCCCc1ccc(CCC(N)(CO)CO)cc1 at 10000 nM
temozolomide: Cn1nnc2c(C(N)=O)ncn2c1=O at 10000 nM
PF-562271: CN(c1ncccc1CNc1nc(Nc2ccc3c(c2)CC(=O)N3)ncc1C(F)(F)F)S(C)(=O)=O at 400 nM
selumetinib: Cn1cnc2c(F)c(Nc3ccc(Br)cc3Cl)c(C(=O)NOCCO)cc21 at 75 nM
bexarotene: C=C(c1ccc(C(=O)O)cc1)c1cc2c(cc1C)C(C)(C)CCC2(C)C at 10000 nM
pioglitazone: CCc1ccc(CCOc2ccc(CC3SC(=O)NC3=O)cc2)nc1 (stereo unspecified) at 10000 nM
dasatinib: Cc1nc(Nc2ncc(C(=O)Nc3c(C)cccc3Cl)s2)cc(N2CCN(CCO)CC2)n1 at 20 nM
crizotinib: C[C@@H](Oc1cc(-c2cnn(C3CCNCC3)c2)cnc1N)c1c(Cl)ccc(F)c1Cl at 1000 nM
MK-1775: C=CCn1c(=O)c2cnc(Nc3ccc(N4CCN(C)CC4)cc3)nc2n1-c1cccc(C(C)(C)O)n1 at 100 nM
AS-252424: O=C1NC(=O)/C(=C/c2ccc(-c3ccc(F)cc3O)o2)S1 at 5000 nM
PLX4720: CCCS(=O)(=O)Nc1ccc(F)c(C(=O)c2c[nH]c3ncc(Cl)cc23)c1F at 400 nM
KU-0063794: COc1ccc(-c2ccc3c(N4CCOCC4)nc(N4C[C@@H](C)O[C@@H](C)C4)nc3n2)cc1CO at 100 nM
ruxolitinib: N#CC[C@H](C1CCCC1)n1cc(-c2ncnc3[nH]ccc23)cn1 at 5000 nM
VX-702: NC(=O)c1ccc(N(C(N)=O)c2c(F)cccc2F)nc1-c1ccc(F)cc1F at 2000 nM
GW441756: Cn1cc(/C=C2\C(=O)Nc3cccnc32)c2ccccc21 at 2000 nM
cisplatin: N.N.[Cl][Pt][Cl] at 8000 nM
embelin: CCCCCCCCCCCC1=C(O)C(=O)C=C(O)C1=O at 6000 nM
everolimus: CO[C@H]1C[C@@H]2CC[C@@H](C)[C@@](O)(O2)C(=O)C(=O)N2CCCC[C@H]2C(=O)O[C@H]([C@H](C)C[C@@H]2CC[C@@H](OCCO)[C@H](OC)C2)CC(=O)[C@H](C)/C=C(\C)[C@@H](O)[C@@H](OC)C(=O)[C@H](C)C[C@H](C)/C=C/C=C/C=C/1C at 100 nM
TCS401: O=C(O)C(=O)Nc1sc2c(c1C(=O)O)CCNC2 at 8330 nM
tamatinib: COc1cc(Nc2ncc(F)c(Nc3ccc4c(n3)NC(=O)C(C)(C)O4)n2)cc(OC)c1OC at 2000 nM

Second drug | SK-MEL-28 | A101D | UACC-257 | SK-MEL-5 | A375 | MEL-HO | WM115 | IPC-298 | G-361 | WM3619 | WM3526 | WM1716 | SK-MEL-30 | COLO 792 | RVH-421
pazopanib | 251 | 57.8 | 755 | 238 | 83.8 | 121 | 34.4 | 100 | 167 | 119 | 106 | 161 | 247 | 248 | 95.4
bortezomib | 173 | 234 | 161 | 6150 | 142 | 145 | 3060 | 4290 | 6170 | 5330 | 3730 | 14100 | 2480 | 699 | 789
GW9662 | 160 | 224 | 77.3 | 20.2 | 62.0 | 254 | 171 | 23.2 | 152 | 96.0 | 78.8 | 98.0 | 159 | 48.6 | 66.7
vismodegib | 216 | 115 | 763 | 165 | 32.3 | 123 | 49.1 | 85.4 | 185 | 93.5 | 141 | 600 | 100 | 271 | 107
sunitinib | 273 | 494 | 70.3 | 244 | 174 | 204 | 131 | 116 | 187 | 160 | 425 | 593 | 207 | 266 | 277
fingolimod | 5030 | 288 | 201 | 1500 | 121 | 10800 | 4810 | 227 | 4610 | 16400 | 552 | 593 | 2070 | 5260 | 1810
GW441756 | 311 | 56.6 | 74.1 | 320 | 135 | 159 | 101 | 156 | 181 | 107 | 132 | 787 | 233 | 156 | 95.0
lapatinib | 237 | 94.0 | 89.1 | 403 | 159 | 78.3 | 156 | 147 | 112 | 149 | 156 | 245 | 177 | 439 | 228
NVP-BEZ235 | 189 | 255 | 70.9 | 645 | 63.5 | 169 | 166 | 135 | 205 | 152 | 222 | 196 | 112 | 417 | 106
crizotinib | 242 | 60.7 | 72.3 | 187 | 115 | 116 | 48.5 | 102 | 160 | 106 | 63.9 | 330 | 213 | 275 | 121
dasatinib | 238 | 94.3 | 126 | 266 | 37.1 | 115 | 189 | 113 | 71.0 | 111 | 146 | 973 | 132 | 222 | 408
cediranib | 161 | 71.2 | 115 | 157 | - | 82.9 | 124 | 74.0 | 146 | 123 | 117 | 1370 | 74.5 | 216 | 203
VX-702 | 150 | 106 | 63.3 | 244 | 152 | 160 | 49.0 | 55.2 | 173 | 117 | 91.3 | 69.1 | 186 | 206 | 264
AS-252424 | 90.5 | 344 | 365 | 184 | 141 | 242 | 62.5 | 72.0 | 210 | 94.7 | 299 | 3330 | 247 | 170 | 654
vincristine | 355 | 95.1 | 1010 | 416 | 42.0 | 140 | 1330 | 198 | 289 | 243 | 1170 | 2170 | 964 | 227 | 187
KU-0063794 | 65.7 | 102 | 312 | 219 | 49.7 | 56.6 | 99.4 | 45.4 | 251 | 130 | 90.2 | 155 | 281 | 120 | 480
PD173074 | 140 | 122 | 149 | 172 | 76.2 | 104 | 104 | 296 | 222 | 88.6 | 158 | 174 | 161 | 157 | 93.6
sorafenib | 311 | 95.6 | 52.9 | 208 | 87.2 | 110 | 136 | 221 | 454 | 104 | 121 | 194 | 110 | 140 | 131
pioglitazone | 191 | 64.7 | 94.5 | 76.2 | 74.0 | 98.9 | 74.2 | 181 | 208 | 111 | 145 | 436 | 155 | 111 | 117
everolimus | 79.2 | 42.8 | 111 | 664 | 111 | 293 | 190 | 209 | 370 | 152 | 298 | 382 | 148 | 332 | 107
AZD7762 | 351 | 104 | 99.2 | 325 | - | 72.5 | 110 | 110 | 163 | 410 | 442 | 370 | 643 | 214 | 244
TCS401 | 33.6 | 49.9 | 206 | 202 | 60.5 | 85.9 | 102 | 143 | 110 | 108 | 86.7 | 388 | 267 | 161 | 158
MK-1775 | 186 | 695 | 92.5 | 72.1 | - | 255 | 130 | 188 | 200 | 160 | 289 | 553 | 429 | 192 | 236
PLX4720 | 188 | 120 | 101 | 404 | 252 | 156 | 313 | 117 | 477 | 117 | 338 | 601 | 157 | 268 | 461
PF-562271 | 172 | 198 | 233 | 125 | 137 | 244 | 213 | 488 | 337 | 136 | 125 | 498 | 140 | 207 | 169
LFM-A13 | 80.7 | 223 | 82.4 | 86.6 | 47.9 | 106 | 55.8 | 35.3 | 126 | 85.4 | 197 | 244 | 128 | 182 | 112
temozolomide | 848 | 143 | 101 | 127 | 25.9 | 101 | 41.4 | 273 | 105 | 80.5 | 73.6 | 996 | 111 | 195 | 622
enzastaurin | 2070 | 61.2 | 99.7 | 260 | 96.5 | 59.9 | 249 | 136 | 272 | 112 | 85.8 | 8490 | 94.2 | 150 | 444
tamatinib | 252 | 397 | 100 | 464 | - | 220 | 132 | 45.6 | 184 | 224 | 392 | 851 | 112 | 662 | 66.1
bexarotene | 969 | 99.0 | 585 | 128 | 299 | 218 | 86.3 | 105 | 167 | 112 | 220 | 1210 | 61.0 | 276 | 173
vatalanib | 122 | 91.5 | 198 | 174 | 90.5 | 233 | 130 | 133 | 280 | 130 | 192 | 561 | 66.2 | 232 | 187
cisplatin | 167 | 71.2 | 657 | 184 | 271 | 312 | 83.5 | 65.2 | 333 | 103 | 115 | 111 | 224 | 350 | 272
selumetinib | 138 | 1100 | 544 | 237 | 251 | 346 | 90.4 | 145 | 310 | 252 | 507 | 126 | 312 | 314 | 329
FK866 | 69.1 | 100 | 137 | 212 | 200 | 565 | 62.2 | 5850 | 10200 | 86.5 | 209 | 4260 | 231 | 1390 | 599
embelin | 220 | 106 | 206 | 66.1 | 46.9 | 174 | 54.9 | 138 | 144 | 97.9 | 143 | 179 | 149 | 66.1 | 341
ruxolitinib | 232 | 117 | 131 | 135 | 72.4 | 63.3 | 40.8 | 62.2 | 238 | 177 | 121 | 344 | 237 | 139 | 226

The first 3 entries again:

- pazopanib : SK-MEL-28: 251; A101D: 57.8; UACC-257: 755; SK-MEL-5: 238; A375: 83.8; MEL-HO: 121; WM115: 34.4; IPC-298: 100; G-361: 167; WM3619: 119; WM3526: 106; WM1716: 161; SK-MEL-30: 247; COLO 792: 248; RVH-421: 95.4
- bortezomib : SK-MEL-28: 173; A101D: 234; UACC-257: 161; SK-MEL-5: 6150; A375: 142; MEL-HO: 145; WM115: 3060; IPC-298: 4290; G-361: 6170; WM3619: 5330; WM3526: 3730; WM1716: 14100; SK-MEL-30: 2480; COLO 792: 699; RVH-421: 789
- GW9662 : SK-MEL-28: 160; A101D: 224; UACC-257: 77.3; SK-MEL-5: 20.2; A375: 62.0; MEL-HO: 254; WM115: 171; IPC-298: 23.2; G-361: 152; WM3619: 96.0; WM3526: 78.8; WM1716: 98.0; SK-MEL-30: 159; COLO 792: 48.6; RVH-421: 66.7